No constants are given. Whether binding was seen depends on the method and setting. In cells and extracts the contact can be indirect. Some results given as binding are weak or reduced against the parent protein; the word gives no strength.
T1: DROSHA (mouse (endogenous in embryonic dorsal telencephalon)) (UniProt Q5HZJ0)
T1 sequence: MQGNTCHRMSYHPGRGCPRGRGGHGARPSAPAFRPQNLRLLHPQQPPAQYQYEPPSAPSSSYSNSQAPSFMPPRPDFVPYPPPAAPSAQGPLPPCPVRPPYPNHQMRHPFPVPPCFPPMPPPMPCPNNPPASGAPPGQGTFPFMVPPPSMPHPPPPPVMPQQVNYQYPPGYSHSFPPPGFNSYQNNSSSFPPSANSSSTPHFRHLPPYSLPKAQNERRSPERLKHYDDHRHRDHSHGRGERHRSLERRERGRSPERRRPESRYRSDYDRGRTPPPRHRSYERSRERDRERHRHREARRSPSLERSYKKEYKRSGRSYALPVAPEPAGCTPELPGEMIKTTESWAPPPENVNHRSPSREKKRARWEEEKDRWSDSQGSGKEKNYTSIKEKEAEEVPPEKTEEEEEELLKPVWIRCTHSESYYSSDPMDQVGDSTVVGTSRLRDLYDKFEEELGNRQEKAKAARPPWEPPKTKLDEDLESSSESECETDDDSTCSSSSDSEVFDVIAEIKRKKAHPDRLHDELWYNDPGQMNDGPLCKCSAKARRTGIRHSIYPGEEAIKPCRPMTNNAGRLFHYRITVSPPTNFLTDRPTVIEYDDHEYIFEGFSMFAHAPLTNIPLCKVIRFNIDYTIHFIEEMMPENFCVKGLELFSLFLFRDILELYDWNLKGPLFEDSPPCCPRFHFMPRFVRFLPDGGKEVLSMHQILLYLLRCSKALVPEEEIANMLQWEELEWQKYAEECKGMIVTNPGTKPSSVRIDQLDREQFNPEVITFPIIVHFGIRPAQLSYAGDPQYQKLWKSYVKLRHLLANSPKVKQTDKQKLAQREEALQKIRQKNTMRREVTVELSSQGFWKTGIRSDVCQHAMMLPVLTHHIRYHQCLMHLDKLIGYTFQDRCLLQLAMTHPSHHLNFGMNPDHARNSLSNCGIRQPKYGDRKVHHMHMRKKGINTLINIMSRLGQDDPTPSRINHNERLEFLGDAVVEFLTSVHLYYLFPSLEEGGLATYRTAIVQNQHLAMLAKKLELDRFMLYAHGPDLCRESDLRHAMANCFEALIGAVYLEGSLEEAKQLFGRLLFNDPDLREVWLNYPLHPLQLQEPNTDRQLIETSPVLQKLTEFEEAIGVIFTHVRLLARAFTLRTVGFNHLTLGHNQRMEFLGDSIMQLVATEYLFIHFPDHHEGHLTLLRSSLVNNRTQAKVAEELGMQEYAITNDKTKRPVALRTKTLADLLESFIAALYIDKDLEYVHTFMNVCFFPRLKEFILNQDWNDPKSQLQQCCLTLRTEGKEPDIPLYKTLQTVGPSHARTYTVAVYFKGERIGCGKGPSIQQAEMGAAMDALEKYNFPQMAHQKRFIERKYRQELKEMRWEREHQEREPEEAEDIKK

The chains behind the UniProt entries cited, without tags or fusion partners.
UniProt Q60987: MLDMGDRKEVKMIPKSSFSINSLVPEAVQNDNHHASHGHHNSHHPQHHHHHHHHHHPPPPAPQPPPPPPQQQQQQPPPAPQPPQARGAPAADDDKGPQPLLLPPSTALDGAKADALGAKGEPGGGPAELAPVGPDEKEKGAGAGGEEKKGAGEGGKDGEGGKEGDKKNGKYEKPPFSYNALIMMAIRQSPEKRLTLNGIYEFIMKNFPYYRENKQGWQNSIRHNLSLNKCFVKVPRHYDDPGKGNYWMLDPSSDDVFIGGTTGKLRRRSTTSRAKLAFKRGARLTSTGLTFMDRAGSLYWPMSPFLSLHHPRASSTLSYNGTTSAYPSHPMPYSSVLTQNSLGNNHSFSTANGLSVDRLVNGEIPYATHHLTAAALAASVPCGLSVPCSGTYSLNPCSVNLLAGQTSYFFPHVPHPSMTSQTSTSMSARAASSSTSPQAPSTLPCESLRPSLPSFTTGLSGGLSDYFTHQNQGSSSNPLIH
UniProt Q921F2: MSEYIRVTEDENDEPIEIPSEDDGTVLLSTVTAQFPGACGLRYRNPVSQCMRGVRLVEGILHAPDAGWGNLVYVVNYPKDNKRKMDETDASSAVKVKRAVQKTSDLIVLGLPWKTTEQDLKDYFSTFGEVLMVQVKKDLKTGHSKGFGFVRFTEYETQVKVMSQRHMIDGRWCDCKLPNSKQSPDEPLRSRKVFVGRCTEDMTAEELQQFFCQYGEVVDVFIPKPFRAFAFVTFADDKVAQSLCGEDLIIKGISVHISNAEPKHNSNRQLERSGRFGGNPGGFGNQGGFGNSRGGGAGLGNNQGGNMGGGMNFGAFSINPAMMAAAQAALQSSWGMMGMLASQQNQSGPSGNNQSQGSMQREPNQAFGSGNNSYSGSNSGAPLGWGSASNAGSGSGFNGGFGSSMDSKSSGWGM


Biological target: T1, DROSHA (mouse (endogenous in embryonic dorsal telencephalon))
Assay: co-IP; anti-DROSHA (or rabbit IgG, mock) on Protein G Dynabeads; lysates of E14.5 mouse dorsal telencephalon electroporated at E12.5 (Control and DGCR8 OE); Co-IP buffer 100 mM NaCl, 20 mM Tris, 1 mM EDTA, 0.5% NP-40; overnight at 4°C; western blot

binding	Molecule
binds	Forkhead box protein G1 (from UniProt Q60987 1-481)
binds	TAR DNA-binding protein 43 (from UniProt Q921F2 1-414)
binds	DGCR8 (protein, UniProt Q9EQM6 1-773) METYESPSPLPREPAGEAMMENRACPFQVLPHEQSPPPPLQTSSDAEVMDVGSGGDGQSEPPADDPFNFYGASLLSKGSFSKGRLLIDPNCSGHSPRTARHAPAVRKFSPDLKLLKDVKISVSFTESCRSKDRKVLYTGVERSTRPECGQLLSPVSGDVHACPFGGSVGNGVGLGGESADKKDEENELDQEKRVEYAVLDELEDFTDNLELDEEGTGGFTAKAIVQRDRVDEEALNFSYEDDFDNDVDALLEEGLCAPKKRRMEEKYGGDSDHPSDGETSVQPMMTKIKTVLKSRGRPPTEPLPDGWIMTFHNSGVPVYLHRESRVVTWSRPYFLGTGSIRKHDPPLSSIPCLHYKKMKDNEEREQNCDLAPSGEVSPVKPLGRSAELDFPLEEPDSMGGDSGSMDEKDPLGAEAAAGALGQVKAKVEVCKDESVDLEEFRNYLEKRFDFEQVTVKKFRTWAERRQFNREMKRKQAESERPILPANQKLITLSVQDAPTKKEFVINPNGKSEVCILHEYMQRVLKVRPVYNFFECENPSEPFGASVTIDGVTYGSGTASSKKLAKNKAARATLEILIPDFVKQTSEEKPKDSEELEYFNHISIEDSRVYELTSKAGLLSPYQILHECLKRNHGMGDTSIKFEVVPGKNQKSEYVMACGKHTVRGWCKNKRVGKQLASQKILQLLHPHVKNWGSLLRMYGRESSKMVKQETSDKSVIELQQYAKKNRPNLHILSKLQEEMKRLAAEREETRKKPKMSIVASAQPGGEPLCTVDV

— publication PMC5936999
